Laboratory results as given in the supplement of paper PMC10849652.
This is one part of the list.

The chains behind the UniProt entries cited, without tags or fusion partners. Where a name states a change or a piece, a line headed by the entry shows the natural chain unless it says otherwise.
UniProt Q15464: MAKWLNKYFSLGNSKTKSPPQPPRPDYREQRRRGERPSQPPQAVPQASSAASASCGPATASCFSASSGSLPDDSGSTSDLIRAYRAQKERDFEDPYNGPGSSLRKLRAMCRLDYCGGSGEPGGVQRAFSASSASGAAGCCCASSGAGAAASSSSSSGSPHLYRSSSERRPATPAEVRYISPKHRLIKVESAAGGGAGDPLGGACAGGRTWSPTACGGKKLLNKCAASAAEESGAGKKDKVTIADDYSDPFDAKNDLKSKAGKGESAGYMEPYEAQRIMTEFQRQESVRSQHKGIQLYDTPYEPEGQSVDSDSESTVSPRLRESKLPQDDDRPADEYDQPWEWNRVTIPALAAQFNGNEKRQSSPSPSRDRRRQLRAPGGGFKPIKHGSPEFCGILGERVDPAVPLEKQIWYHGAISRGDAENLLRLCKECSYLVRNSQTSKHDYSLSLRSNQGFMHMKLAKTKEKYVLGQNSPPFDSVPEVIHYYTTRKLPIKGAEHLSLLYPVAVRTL
UniProt Q12874: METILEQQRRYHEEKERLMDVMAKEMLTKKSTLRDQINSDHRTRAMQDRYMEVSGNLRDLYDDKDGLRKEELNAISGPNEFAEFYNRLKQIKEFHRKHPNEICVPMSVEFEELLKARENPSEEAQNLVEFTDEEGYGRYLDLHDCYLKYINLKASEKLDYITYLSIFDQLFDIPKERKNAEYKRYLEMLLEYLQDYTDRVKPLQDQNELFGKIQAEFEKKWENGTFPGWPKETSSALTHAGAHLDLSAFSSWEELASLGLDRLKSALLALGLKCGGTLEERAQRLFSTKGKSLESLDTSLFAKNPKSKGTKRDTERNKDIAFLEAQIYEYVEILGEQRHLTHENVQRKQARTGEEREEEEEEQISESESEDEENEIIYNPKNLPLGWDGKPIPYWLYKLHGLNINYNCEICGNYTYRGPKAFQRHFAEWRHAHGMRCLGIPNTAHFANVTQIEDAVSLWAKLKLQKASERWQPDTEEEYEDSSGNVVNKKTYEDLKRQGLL
UniProt Q9BRV8: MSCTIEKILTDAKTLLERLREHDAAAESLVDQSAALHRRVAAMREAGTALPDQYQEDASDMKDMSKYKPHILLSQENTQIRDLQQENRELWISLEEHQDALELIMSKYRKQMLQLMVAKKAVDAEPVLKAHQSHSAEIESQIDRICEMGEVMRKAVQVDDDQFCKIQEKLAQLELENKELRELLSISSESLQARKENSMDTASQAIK
UniProt Q99574: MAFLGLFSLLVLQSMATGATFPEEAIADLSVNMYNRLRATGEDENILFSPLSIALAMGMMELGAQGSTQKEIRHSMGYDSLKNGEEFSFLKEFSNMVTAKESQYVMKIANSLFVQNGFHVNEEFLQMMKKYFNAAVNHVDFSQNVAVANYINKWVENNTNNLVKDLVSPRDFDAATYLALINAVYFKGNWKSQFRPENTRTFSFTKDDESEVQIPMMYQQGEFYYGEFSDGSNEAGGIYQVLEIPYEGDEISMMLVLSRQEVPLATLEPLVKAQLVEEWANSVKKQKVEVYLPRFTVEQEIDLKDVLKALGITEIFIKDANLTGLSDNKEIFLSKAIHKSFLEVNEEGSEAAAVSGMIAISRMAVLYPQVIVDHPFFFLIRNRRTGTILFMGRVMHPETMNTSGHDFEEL
UniProt Q15393: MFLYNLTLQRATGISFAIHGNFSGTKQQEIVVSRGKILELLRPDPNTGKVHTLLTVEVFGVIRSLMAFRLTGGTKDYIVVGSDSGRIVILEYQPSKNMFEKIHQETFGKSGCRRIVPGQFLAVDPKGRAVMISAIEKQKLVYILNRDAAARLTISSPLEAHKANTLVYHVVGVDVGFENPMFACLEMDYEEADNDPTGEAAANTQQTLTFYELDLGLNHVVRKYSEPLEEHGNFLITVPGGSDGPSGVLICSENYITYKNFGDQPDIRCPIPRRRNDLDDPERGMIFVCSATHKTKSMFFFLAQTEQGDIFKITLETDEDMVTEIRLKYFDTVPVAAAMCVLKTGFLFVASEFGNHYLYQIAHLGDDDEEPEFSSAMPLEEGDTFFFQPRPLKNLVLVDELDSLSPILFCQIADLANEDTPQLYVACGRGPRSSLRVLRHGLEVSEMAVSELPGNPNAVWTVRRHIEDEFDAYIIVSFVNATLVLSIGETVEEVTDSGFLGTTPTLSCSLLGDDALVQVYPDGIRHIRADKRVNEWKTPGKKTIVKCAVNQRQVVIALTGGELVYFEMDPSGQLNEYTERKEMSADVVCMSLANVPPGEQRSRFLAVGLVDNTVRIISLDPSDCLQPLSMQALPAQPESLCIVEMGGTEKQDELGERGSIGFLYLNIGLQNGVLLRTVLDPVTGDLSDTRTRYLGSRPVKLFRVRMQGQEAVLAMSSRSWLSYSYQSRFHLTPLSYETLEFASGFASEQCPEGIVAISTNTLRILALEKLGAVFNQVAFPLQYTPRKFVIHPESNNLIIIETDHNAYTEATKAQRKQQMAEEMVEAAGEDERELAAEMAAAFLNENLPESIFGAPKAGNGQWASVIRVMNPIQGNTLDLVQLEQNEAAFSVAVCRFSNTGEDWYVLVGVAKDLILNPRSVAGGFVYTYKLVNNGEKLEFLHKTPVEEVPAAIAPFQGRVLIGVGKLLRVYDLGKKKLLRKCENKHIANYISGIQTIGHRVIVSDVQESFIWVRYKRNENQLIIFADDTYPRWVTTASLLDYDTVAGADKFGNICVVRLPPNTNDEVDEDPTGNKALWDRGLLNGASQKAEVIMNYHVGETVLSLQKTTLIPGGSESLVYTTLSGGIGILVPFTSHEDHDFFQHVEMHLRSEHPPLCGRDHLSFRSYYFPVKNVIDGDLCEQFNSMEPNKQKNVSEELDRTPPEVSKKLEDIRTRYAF
UniProt Q9BX95: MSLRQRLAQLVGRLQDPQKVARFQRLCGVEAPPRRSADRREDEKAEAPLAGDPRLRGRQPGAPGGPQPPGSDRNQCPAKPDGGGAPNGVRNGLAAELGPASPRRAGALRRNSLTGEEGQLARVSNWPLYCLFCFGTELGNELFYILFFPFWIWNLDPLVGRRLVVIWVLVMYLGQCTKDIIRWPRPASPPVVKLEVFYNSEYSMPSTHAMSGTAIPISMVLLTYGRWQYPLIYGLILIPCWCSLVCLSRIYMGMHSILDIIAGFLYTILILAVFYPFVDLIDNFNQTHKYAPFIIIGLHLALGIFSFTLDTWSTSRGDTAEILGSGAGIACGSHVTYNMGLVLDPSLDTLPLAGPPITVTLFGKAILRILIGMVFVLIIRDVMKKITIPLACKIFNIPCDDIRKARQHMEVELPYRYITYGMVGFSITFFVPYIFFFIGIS
UniProt O75368: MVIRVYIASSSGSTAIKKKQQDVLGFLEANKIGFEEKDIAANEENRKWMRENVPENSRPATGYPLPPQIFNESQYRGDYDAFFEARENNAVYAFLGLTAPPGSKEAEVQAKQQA
UniProt Q8IUQ4: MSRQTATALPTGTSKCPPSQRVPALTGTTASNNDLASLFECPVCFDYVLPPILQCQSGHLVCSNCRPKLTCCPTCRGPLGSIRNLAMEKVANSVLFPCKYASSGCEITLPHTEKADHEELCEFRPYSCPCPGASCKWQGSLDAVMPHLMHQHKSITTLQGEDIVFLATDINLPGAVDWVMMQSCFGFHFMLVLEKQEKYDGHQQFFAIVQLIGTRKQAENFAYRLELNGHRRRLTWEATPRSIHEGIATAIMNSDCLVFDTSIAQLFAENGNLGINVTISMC
UniProt Q9BWJ5: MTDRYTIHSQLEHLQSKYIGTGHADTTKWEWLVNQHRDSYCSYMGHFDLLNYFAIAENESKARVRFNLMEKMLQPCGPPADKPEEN
UniProt Q99961: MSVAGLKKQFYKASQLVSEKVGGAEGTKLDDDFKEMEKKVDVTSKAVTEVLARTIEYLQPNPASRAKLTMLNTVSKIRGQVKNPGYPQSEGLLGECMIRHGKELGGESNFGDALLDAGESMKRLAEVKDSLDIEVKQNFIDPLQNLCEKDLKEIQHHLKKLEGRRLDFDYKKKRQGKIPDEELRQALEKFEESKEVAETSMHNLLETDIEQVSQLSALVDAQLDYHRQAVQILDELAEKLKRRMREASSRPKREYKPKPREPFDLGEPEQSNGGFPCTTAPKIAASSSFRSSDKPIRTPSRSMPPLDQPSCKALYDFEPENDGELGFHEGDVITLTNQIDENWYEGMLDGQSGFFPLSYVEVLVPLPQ
UniProt Q9NRX5: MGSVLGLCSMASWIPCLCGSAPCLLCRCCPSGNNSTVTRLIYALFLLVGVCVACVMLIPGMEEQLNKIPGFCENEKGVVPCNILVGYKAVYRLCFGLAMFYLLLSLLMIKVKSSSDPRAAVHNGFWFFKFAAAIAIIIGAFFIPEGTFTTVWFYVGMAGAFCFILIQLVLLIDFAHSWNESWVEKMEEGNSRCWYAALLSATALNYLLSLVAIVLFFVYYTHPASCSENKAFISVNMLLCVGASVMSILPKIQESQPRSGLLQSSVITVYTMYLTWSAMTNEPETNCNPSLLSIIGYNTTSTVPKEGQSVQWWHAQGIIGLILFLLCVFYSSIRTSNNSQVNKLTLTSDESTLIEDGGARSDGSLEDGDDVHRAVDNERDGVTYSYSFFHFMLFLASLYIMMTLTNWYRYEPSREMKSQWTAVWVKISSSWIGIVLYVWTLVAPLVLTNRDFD
UniProt P08697: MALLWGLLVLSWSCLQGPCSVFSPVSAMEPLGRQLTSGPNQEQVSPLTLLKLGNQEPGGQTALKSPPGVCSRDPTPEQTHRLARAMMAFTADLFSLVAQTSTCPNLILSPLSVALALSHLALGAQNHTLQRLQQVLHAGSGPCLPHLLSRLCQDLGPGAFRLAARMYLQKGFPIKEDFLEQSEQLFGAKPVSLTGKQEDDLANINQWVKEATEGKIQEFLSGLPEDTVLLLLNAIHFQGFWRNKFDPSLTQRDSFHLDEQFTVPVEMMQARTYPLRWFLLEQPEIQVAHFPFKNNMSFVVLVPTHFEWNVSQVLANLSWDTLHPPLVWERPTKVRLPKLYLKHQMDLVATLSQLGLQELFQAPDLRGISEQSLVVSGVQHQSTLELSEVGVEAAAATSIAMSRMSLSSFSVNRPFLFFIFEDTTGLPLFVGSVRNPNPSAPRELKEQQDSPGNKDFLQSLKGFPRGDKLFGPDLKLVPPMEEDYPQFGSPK
UniProt Q99442: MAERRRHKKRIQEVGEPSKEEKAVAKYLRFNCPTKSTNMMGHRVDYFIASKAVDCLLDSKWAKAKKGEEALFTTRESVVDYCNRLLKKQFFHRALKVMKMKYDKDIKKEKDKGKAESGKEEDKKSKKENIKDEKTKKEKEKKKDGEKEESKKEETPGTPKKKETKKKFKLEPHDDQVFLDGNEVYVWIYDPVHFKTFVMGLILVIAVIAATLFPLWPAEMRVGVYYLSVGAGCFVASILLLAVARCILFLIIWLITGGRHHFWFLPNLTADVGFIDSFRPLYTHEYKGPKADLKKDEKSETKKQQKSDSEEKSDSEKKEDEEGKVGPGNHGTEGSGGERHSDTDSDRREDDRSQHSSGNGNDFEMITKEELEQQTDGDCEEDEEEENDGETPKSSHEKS
UniProt P60059: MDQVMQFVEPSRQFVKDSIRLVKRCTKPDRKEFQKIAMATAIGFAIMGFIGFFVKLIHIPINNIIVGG
UniProt Q8IX90, whole entry, looked up: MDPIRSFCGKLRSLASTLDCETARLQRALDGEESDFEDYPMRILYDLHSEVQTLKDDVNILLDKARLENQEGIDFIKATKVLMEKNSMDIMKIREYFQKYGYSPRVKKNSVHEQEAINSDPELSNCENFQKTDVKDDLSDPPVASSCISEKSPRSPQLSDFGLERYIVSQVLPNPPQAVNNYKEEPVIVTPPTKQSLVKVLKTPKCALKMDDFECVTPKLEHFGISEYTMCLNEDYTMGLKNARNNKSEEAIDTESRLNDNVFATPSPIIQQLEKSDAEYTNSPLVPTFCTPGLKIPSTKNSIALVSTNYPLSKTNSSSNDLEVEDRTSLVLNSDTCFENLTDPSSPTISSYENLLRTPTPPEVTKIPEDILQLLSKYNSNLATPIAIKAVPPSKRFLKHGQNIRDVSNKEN
UniProt P05543: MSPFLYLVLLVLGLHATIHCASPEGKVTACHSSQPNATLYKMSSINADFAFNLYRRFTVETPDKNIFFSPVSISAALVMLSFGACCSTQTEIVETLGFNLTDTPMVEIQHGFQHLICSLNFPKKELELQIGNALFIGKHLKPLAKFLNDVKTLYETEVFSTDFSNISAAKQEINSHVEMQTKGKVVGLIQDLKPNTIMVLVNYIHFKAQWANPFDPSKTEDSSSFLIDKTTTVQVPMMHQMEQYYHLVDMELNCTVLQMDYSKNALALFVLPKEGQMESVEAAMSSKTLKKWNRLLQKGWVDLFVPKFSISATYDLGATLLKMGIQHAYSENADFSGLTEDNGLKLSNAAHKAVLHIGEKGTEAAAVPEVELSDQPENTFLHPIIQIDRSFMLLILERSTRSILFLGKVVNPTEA
UniProt Q99720, whole entry, looked up: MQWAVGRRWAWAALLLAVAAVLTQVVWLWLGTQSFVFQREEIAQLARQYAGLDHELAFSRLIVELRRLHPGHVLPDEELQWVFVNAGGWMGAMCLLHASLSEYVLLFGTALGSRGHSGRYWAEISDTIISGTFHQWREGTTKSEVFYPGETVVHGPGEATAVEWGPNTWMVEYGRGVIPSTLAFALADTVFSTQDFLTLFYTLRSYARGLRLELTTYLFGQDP

Columns and labels:
Test in all cases: log2 fold change, soluble protein after heating vs DMSO (PISA); higher = thermal stabilisation; K562 cells, 10 uM, 30 min; active = over 0.2 and 3.5 SD of the protein, either way, in both replicates (recomputed)
bafetinib = compound: Cc1ccc(NC(=O)c2ccc(CN3CC[C@H](N(C)C)C3)c(C(F)(F)F)c2)cc1Nc1nccc(-c2cncnc2)n1 [bafetinib]
How it was run: (§1)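 K562 cells at 2×10^6 cells/mL were exposed to 10 μM compound for 30 min, then aliquots were heated for 3 min across 48°C-58°C, pooled, and extracted in PBS containing 0.5% NP-40 at 4°C. The supernatant after 21,000xg for 90 min was taken as soluble protein and measured by TMTpro 16plex LC-MS/MS with channel sums equalised. Thermal stability is reported relative to control samples, with values from duplicates. Fold changes are given on a log2 scale.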

[1] = compound: Cc1cccc(CC(=O)N2CCc3c2ccc(-c2cn(C)c4ncnc(N)c24)c3F)n1
How it was run: as §1

dasatinib = compound: Cc1nc(Nc2ncc(C(=O)Nc3c(C)cccc3Cl)s2)cc(N2CCN(CCO)CC2)n1 [dasatinib]
How it was run: as §1

[2] = compound: Cn1cc(-c2ccc3c(c2)CCN3C(=O)Cc2cccc(C(F)(F)F)c2)c2c(N)ncnc21
How it was run: as §1

tipifarnib = compound: Cn1cncc1[C@@](N)(c1ccc(Cl)cc1)c1ccc2c(c1)c(-c1cccc(Cl)c1)cc(=O)n2C [tipifarnib]
How it was run: as §1

mubritinib = compound: FC(F)(F)c1ccc(/C=C/c2nc(COc3ccc(CCCCn4ccnn4)cc3)co2)cc1 [mubritinib]
How it was run: as §1

nilotinib = compound: Cc1cn(-c2cc(NC(=O)c3ccc(C)c(Nc4nccc(-c5cccnc5)n4)c3)cc(C(F)(F)F)c2)cn1 [nilotinib]
How it was run: as §1

[3] = compound: Cc1nc(Nc2n[nH]c3c2CN(C(=O)N[C@H](CN(C)C)c2ccccc2)C3(C)C)c2sccc2n1
How it was run: as §1

[4] = compound: Cc1ncc(-c2ccnc(Nc3ccc(S(C)(=O)=O)cc3)n2)n1C(C)C
How it was run: as §1

[5] = compound: Cn1cc(-c2ccc3nnc(C(F)(F)c4ccc5ncccc5c4)n3n2)cn1
How it was run: as §1

| Target | log2 fold change (bafetinib) | log2 fold change [1] | log2 fold change (dasatinib) | log2 fold change [2] | log2 fold change (tipifarnib) | log2 fold change (mubritinib) | log2 fold change (nilotinib) | log2 fold change [3] | log2 fold change [4] | log2 fold change [5] |
| --- | --- | --- | --- | --- | --- | --- | --- | --- | --- | --- |
| SHB (UniProt Q15464) | inactive: 0.05 | inactive: 0.132 | inactive: -0.111 | inactive: 0.078 | inactive: 0.043 | inactive: -0.021 | – | – | – | – |
| SHFL (UniProt Q9NUL5) | inactive: 0.094 | inactive: -0.078 | – | – | inactive: 0.001 | inactive: -0.06 | inactive: -0.012 | inactive: -0.01 | inactive: 0.034 | inactive: 0.091 |
| SF3A3 (UniProt Q12874) | inactive: 0.045 | inactive: 0.008 | inactive: -0.02 | inactive: -0.011 | inactive: -0.015 | inactive: 0.086 | inactive: -0.006 | inactive: -0.225 | inactive: 0.026 | inactive: -0.021 |
| SIKE1 (UniProt Q9BRV8) | inactive: -0.031 | inactive: 0.035 | inactive: -0.061 | inactive: -0.009 | inactive: 0.013 | inactive: 0.06 | inactive: -0.126 | inactive: -0.095 | inactive: -0.029 | inactive: -0.013 |
| SERPINI1 (UniProt Q99574) | inactive: 0.056 | inactive: -0.078 | inactive: 0.032 | inactive: -0.03 | inactive: 0.053 | inactive: 0.121 | inactive: 0.02 | inactive: -0.015 | inactive: -0.033 | inactive: 0.013 |
| SF3B3 (UniProt Q15393) | inactive: -0.019 | inactive: 0 | inactive: -0.003 | inactive: -0.062 | inactive: -0.071 | inactive: 0.002 | inactive: -0.001 | inactive: 0.003 | inactive: 0.057 | inactive: -0.002 |
| SF1 (UniProt H7C0N4) | inactive: -0.005 | – | inactive: 0.035 | inactive: 0.11 | inactive: 0.04 | inactive: -0.086 | inactive: 0.114 | inactive: 0.026 | inactive: 0.221 | inactive: -0.033 |
| SGPP1 (UniProt Q9BX95) | inactive: -0.206 | inactive: -0.004 | inactive: -0.034 | inactive: 0.044 | inactive: 0.121 | inactive: -0.061 | inactive: 0.028 | inactive: -0.073 | inactive: -0.026 | – |
| SH3BGRL (UniProt O75368) | inactive: -0.003 | inactive: -0.127 | inactive: -0.028 | inactive: 0.086 | inactive: -0.074 | inactive: 0.033 | inactive: 0.015 | inactive: -0.013 | inactive: -0.003 | inactive: 0.018 |
| SH3PXD2B (UniProt A1X283) | active: -0.954 | inactive: -0.058 | – | inactive: 0.024 | – | inactive: 0 | inactive: -0.124 | inactive: 0.129 | inactive: -0.152 | – |
| SIAH1 isoform 2 (UniProt Q8IUQ4) | inactive: 0.206 | inactive: -0.175 | inactive: -0.099 | inactive: -0.043 | inactive: -0.014 | – | – | – | – | – |
| SFXN4 isoform 3 (UniProt Q6P4A7) | inactive: -0.003 | inactive: 0.001 | inactive: -0.051 | inactive: 0.124 | inactive: 0 | – | – | – | – | – |
| SELENOK (UniProt Q9Y6D0) | inactive: 0.101 | inactive: 0.126 | – | inactive: -0.012 | – | inactive: -0.037 | inactive: 0.043 | inactive: 0.013 | inactive: 0.083 | – |
| SERBP1 isoform 3 (UniProt Q8NC51) | inactive: -0.11 | inactive: 0 | inactive: 0.245 | – | inactive: 0.11 | inactive: 0.044 | inactive: 0.028 | inactive: 0.015 | inactive: -0.082 | inactive: -0.129 |
| SF3B5 (UniProt Q9BWJ5) | inactive: -0.115 | inactive: -0.056 | inactive: -0.189 | – | inactive: -0.018 | inactive: -0.043 | inactive: 0.029 | inactive: 0.008 | inactive: -0.064 | – |
| SHMT2 (UniProt P34897) | inactive: -0.026 | inactive: -0.04 | inactive: 0.035 | inactive: 0.013 | inactive: -0.009 | inactive: 0.023 | inactive: 0.003 | inactive: 0.018 | inactive: -0.024 | inactive: 0.026 |
| SH3GL1 (UniProt Q99961) | inactive: -0.018 | inactive: 0.069 | inactive: -0.262 | inactive: 0.055 | inactive: -0.114 | inactive: 0.122 | inactive: -0.084 | inactive: -0.18 | inactive: -0.014 | inactive: 0.02 |

Part of the list above, comma-delimited:
Target,log2 fold change (bafetinib),log2 fold change [1],log2 fold change (dasatinib),log2 fold change [2],log2 fold change (tipifarnib),log2 fold change (mubritinib),log2 fold change (nilotinib),log2 fold change [3],log2 fold change [4],log2 fold change [5]
SIAH1 isoform 2 (UniProt Q8IUQ4),inactive: 0.206,inactive: -0.175,inactive: -0.099,inactive: -0.043,inactive: -0.014,–,–,–,–,–
SFXN4 isoform 3 (UniProt Q6P4A7),inactive: -0.003,inactive: 0.001,inactive: -0.051,inactive: 0.124,inactive: 0,–,–,–,–,–
SELENOK (UniProt Q9Y6D0),inactive: 0.101,inactive: 0.126,–,inactive: -0.012,–,inactive: -0.037,inactive: 0.043,inactive: 0.013,inactive: 0.083,–

(list continues)

| Target | log2 fold change (bafetinib) | log2 fold change [1] | log2 fold change (dasatinib) | log2 fold change [2] | log2 fold change (tipifarnib) | log2 fold change (mubritinib) | log2 fold change (nilotinib) | log2 fold change [3] | log2 fold change [4] | log2 fold change [5] |
| --- | --- | --- | --- | --- | --- | --- | --- | --- | --- | --- |
| SERINC1 (UniProt Q9NRX5) | inactive: -0.135 | – | inactive: -0.034 | – | inactive: -0.112 | inactive: 0.057 | inactive: 0.121 | inactive: 0.081 | inactive: -0.064 | inactive: 0.054 |
| SEPTIN10 isoform 2 (UniProt Q9P0V9) | inactive: -0.06 | inactive: -0.008 | inactive: 0.019 | inactive: 0.184 | inactive: -0.037 | inactive: 0.044 | inactive: -0.01 | inactive: 0.037 | inactive: 0.012 | – |
| SERPINF2 (UniProt P08697) | inactive: -0.433 | inactive: -0.032 | inactive: 0.041 | inactive: 0.162 | inactive: 0.05 | inactive: -0.509 | inactive: 0.021 | inactive: 0.062 | inactive: 0.494 | inactive: -0.098 |
| SEC62 (UniProt Q99442) | inactive: -0.044 | inactive: -0.007 | inactive: 0.082 | inactive: 0.026 | inactive: 0.014 | inactive: -0.056 | inactive: 0.059 | inactive: 0.063 | inactive: -0.017 | inactive: 0.021 |
| SEC61G (UniProt P60059) | inactive: 0.067 | – | inactive: -0.154 | – | – | inactive: 0 | inactive: 0.057 | inactive: 0.034 | inactive: -0.001 | inactive: -0.082 |
| SERPINB7 (UniProt O75635) | inactive: 0.175 | inactive: 0.254 | inactive: -0.03 | – | – | inactive: 0.203 | – | – | – | – |
| SGTB (UniProt Q96EQ0) | inactive: -0.009 | inactive: 0.008 | – | inactive: 0.047 | inactive: 0.028 | inactive: 0.051 | inactive: -0.016 | inactive: -0.008 | inactive: 0.009 | inactive: 0.018 |
| SF1 isoform 6 (UniProt Q15637) | inactive: -0.172 | inactive: -0.115 | inactive: 0.023 | inactive: 0.104 | inactive: -0.178 | inactive: -0.048 | inactive: -0.187 | inactive: 0.052 | inactive: -0.026 | inactive: -0.096 |
| SEMG2 (UniProt Q02383) | inactive: -0.089 | inactive: 0.016 | – | inactive: 0.008 | – | inactive: -0.044 | inactive: -0.083 | inactive: 0.056 | inactive: 0.003 | – |
| SKA3 (UniProt Q8IX90) | inactive: -0.054 | inactive: 0.052 | inactive: -0.076 | inactive: -0.231 | inactive: 0.028 | inactive: -0.051 | inactive: -0.015 | inactive: -0.11 | inactive: -0.038 | inactive: -0.115 |
| SERPINA7 (UniProt P05543) | inactive: -0.191 | inactive: -0.152 | inactive: 0.098 | inactive: 0.238 | inactive: 0.104 | inactive: -0.247 | inactive: 0.05 | inactive: 0.115 | inactive: 0.392 | inactive: 0.001 |
| SIGMAR1 (UniProt Q99720) | inactive: -0.029 | inactive: -0.133 | inactive: -0.019 | inactive: -0.04 | inactive: 0.131 | inactive: 0.029 | inactive: 0.015 | inactive: 0.006 | inactive: -0.033 | inactive: -0.002 |
| SEC63 (UniProt Q9UGP8) | inactive: 0.02 | inactive: 0.021 | inactive: -0.002 | inactive: 0.03 | inactive: -0.04 | inactive: 0.043 | inactive: -0.059 | inactive: -0.002 | inactive: -0.003 | inactive: -0.001 |
| SHTN1 isoform 3 (UniProt A0MZ66) | inactive: -0.029 | inactive: -0.004 | inactive: 0.04 | inactive: -0.064 | inactive: -0.01 | inactive: 0 | inactive: -0.037 | inactive: -0.036 | inactive: 0.033 | inactive: 0.03 |
| SHROOM2 (UniProt Q13796) | inactive: -0.091 | inactive: -0.02 | inactive: 0.166 | inactive: 0.163 | inactive: -0.022 | inactive: 0.258 | inactive: 0.082 | inactive: 0.011 | inactive: -0.043 | – |
| SEPTIN7 isoform 2 (UniProt Q16181) | – | – | – | – | – | inactive: -0.44 | – | – | – | – |
